Measured values published in patent publication US8470340B2 (priority 2008, dated 2013).

Assay: peptide synthesis
Settings: whole synthesis

Question: With “ALTAPLDHKDKGLQSDPAKC (conjugated to KLH)” as the sequence, how does the “purity (crude or final not stated)” value read?
Answer: Its value is 80.8%.

Question: With AQAFQTPVHSDPAKC (conjugated to KLH) as the sequence, how does the “purity (crude or final not stated)” value read?
Answer: The value was 91.5%.

Question: With AEGEFHDHKLEGTEDPAKC (conjugated to KLH) as the sequence, how does the “purity (crude or final not stated)” value read?
Answer: Its value is 89.1%.

Question: Which “purity (crude or final not stated)” value does the source give for HFVQQTPQSQDPAKC (conjugated to KLH) here?
Answer: Its value is 81.9%.

Question: Which “purity (crude or final not stated)” value does the source give for “TKDDPLKQHLALSAGDPAKC (conjugated to KLH)” here?
Answer: The value was 91.0%.

Question: For FDFIRQIEVDGQLITLESGEDPAKC, which “purity (crude or final not stated)” value is on record?
Answer: The value was 85.4%.

Question: Which “purity (crude or final not stated)” value does the source give for “AEGEFWTLAVFDHKAQTGDPAKC (conjugated to KLH)” here?
Answer: The value was 92.0%.

Question: For AEGEFHDHKTQLDPDPAKC (conjugated to KLH), which “purity (crude or final not stated)” value is on record?
Answer: The value was 96.9%.

Same assay, conditions: whole synthesis, one disulfide bridge, sequence written open

Question: With AEGEFCGGVYDDKTGCAPDPAKC as the sequence, how does the “purity (crude or final not stated)” value read?
Answer: The value was 75.6%.

End groups of sequences in plain letters are not given here.
